The source of these data is publication PMC6642080.

No constants are given. Whether binding was seen depends on the method and setting. Binding seen in cells or lysates may run through a third protein. Some results given as binding are weak or reduced against the parent protein; the word gives no strength. Where a sequence is shown, tags or fusion partners need not be part of it.

In test [1] the target is T1, Single immunoglobin interleukin-1 (IL-1)-related receptor (Sigirr), endogenous in MLE12 cells (mouse (endogenous in MLE12)) (UniProt Q9JLZ8).
T1 sequence: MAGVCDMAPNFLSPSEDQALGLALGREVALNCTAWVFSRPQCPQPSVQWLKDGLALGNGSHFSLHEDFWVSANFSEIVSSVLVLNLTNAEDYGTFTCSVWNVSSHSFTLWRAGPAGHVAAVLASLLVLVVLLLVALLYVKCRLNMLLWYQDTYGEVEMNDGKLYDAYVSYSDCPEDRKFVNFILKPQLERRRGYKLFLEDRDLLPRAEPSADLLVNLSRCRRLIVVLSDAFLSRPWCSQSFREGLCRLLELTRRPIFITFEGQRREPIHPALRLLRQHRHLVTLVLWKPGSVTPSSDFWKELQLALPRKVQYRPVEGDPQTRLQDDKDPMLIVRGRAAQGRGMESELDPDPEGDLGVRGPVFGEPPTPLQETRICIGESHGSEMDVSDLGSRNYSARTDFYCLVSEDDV
Put plainly: co-IP; MLE12 cell lysate (1% Triton X-100, 150 mM NaCl, Tris pH 7.4); IP with anti-Sigirr antibody and protein A/G agarose overnight at 4 °C; blot for V5 (overexpressed USP13-V5) or USP13 (endogenous); untreated cells.

Test [2] deals with T2, Sigirr (1-374)-V5 (human) (UniProt Q6IA17).
T2 sequence: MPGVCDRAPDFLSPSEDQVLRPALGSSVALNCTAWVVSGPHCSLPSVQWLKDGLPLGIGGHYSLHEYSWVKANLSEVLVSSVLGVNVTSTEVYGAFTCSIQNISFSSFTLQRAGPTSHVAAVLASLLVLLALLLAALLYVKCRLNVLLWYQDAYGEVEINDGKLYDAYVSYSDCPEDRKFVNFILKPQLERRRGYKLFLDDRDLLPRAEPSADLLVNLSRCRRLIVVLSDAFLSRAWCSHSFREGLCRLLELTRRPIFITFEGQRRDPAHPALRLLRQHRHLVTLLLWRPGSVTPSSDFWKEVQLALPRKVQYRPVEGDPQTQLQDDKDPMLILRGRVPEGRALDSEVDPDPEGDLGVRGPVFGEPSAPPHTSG
Kind of test: co-IP; USP13-HA and V5-tagged Sigirr or its C-terminal deletion mutants made with a TnT in vitro translation system, incubated together; IP with anti-V5 beads; blot for HA.

Test [3] deals with T3, V5-tagged full-length Sigirr (1-410 aa) (human), Q6IA17.
T3 chain: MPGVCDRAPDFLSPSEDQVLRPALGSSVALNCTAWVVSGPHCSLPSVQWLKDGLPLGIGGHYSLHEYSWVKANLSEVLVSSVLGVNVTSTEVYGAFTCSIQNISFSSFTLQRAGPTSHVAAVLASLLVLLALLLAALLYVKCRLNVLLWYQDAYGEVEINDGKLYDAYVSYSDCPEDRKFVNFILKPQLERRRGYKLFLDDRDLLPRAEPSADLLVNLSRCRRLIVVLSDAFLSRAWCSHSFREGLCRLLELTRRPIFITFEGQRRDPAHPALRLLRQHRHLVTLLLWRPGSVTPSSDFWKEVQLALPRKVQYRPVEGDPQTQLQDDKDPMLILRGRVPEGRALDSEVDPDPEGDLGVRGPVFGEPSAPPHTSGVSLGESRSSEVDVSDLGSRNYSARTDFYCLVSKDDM
The description is as above. Particulars: remark: other sources report otherwise.

B1: USP13, endogenous in MLE12 cells (enzyme, UniProt Q5BKP2 1-858)
chain: MQRRGALFSVPGGGGKMAAGDLGELLVPHMPTIRVPRSGDRVYKNECAFSYDSPNSEGGLYVCMNTFLAFGREHVERHFRKTGQSVYMHLKRHMREKVRGASGGALPKRRNSKIFLDLDMDDDLNSDDYEYEDEAKLVIFPDHYEIALPNIEELPALVTIACDAVLSSKSPYRKQDPDTWENEVPVSKYANNLVQLDNGVRIPPSGWKCARCDLRENLWLNLTDGSVLCGKWFFDSSGGNGHALEHYRDMGYPLAVKLGTITPDGADVYSFQEEGPVSDPHLAKHLAHFGIDMLHTQGTENGLRDNDIKPRVSEWEVIQESGTKLKPMYGPGYTGLKNLGNSCYLSSVMQAIFSIPEFQRAYVGNLPRIFDYSPLDPTQDFNTQMTKLGHGLLSGQYSKPPVKSELIEQVMKEEHKPQQNGISPRMFKAFVSKSHPEFSSNRQQDAQEFFLHLVNLVERNRIGSENPSDVFRFLVEERIQCCQTRKVRYTERVDYLMQLPVAMEAATNKDELITYELMRREAEANRRPLPELVRAKIPFSACLQAFAEPDNVDDFWSSALQAKSAGVKTSRFASFPEYLVVQIKKFTFGLDWVPRKFDVSIDMPDLLDISHLRARGLQPGEEELPDISPPIVIPDDSKDRLMNQLIDPSDIDESSVMQLAEMGFPLEACRKAVYFTGNTGAEVAFNWIIVHMEEPDFAEPLAIPGYGGAGASVFGATGLDNQPPEEIVAIITSMGFQRNQAVQALQATNHNLERALDWIFSHPEFEEDSDFVIEMENNANANIVSEAKPEGPRVKDGSGMYELFAFISHMGTSTMSGHYVCHIKKEGRWVIYNDHKVCASERPPKDLGYMYFYRRIPS
For B1, the binding entry in test [1] is listed as “binds”.

B2: V5-tagged USP13 (USP13-V5) (enzyme, UniProt Q92995 1-863)
chain: MQRRGALFGMPGGSGGRKMAAGDIGELLVPHMPTIRVPRSGDRVYKNECAFSYDSPNSEGGLYVCMNTFLAFGREHVERHFRKTGQSVYMHLKRHVREKVRGASGGALPKRRNSKIFLDLDTDDDLNSDDYEYEDEAKLVIFPDHYEIALPNIEELPALVTIACDAVLSSKSPYRKQDPDTWENELPVSKYANNLTQLDNGVRIPPSGWKCARCDLRENLWLNLTDGSVLCGKWFFDSSGGNGHALEHYRDMGYPLAVKLGTITPDGADVYSFQEEEPVLDPHLAKHLAHFGIDMLHMHGTENGLQDNDIKLRVSEWEVIQESGTKLKPMYGPGYTGLKNLGNSCYLSSVMQAIFSIPEFQRAYVGNLPRIFDYSPLDPTQDFNTQMTKLGHGLLSGQYSKPPVKSELIEQVMKEEHKPQQNGISPRMFKAFVSKSHPEFSSNRQQDAQEFFLHLVNLVERNRIGSENPSDVFRFLVEERIQCCQTRKVRYTERVDYLMQLPVAMEAATNKDELIAYELTRREAEANRRPLPELVRAKIPFSACLQAFSEPENVDDFWSSALQAKSAGVKTSRFASFPEYLVVQIKKFTFGLDWVPKKFDVSIDMPDLLDINHLRARGLQPGEEELPDISPPIVIPDDSKDRLMNQLIDPSDIDESSVMQLAEMGFPLEACRKAVYFTGNMGAEVAFNWIIVHMEEPDFAEPLTMPGYGGAASAGASVFGASGLDNQPPEEIVAIITSMGFQRNQAIQALRATNNNLERALDWIFSHPEFEEDSDFVIEMENNANANIISEAKPEGPRVKDGSGTYELFAFISHMGTSTMSGHYICHIKKEGRWVIYNDHKVCASERPPKDLGYMYFYRRIPS
B2: the binding entry in test [1] is given as “binds”.

B3: USP13-HA (enzyme, UniProt Q92995 1-863)
chain: B2 chain
As for B3, the binding entry in test [2] is “binds”.

B4: USP13-HA, Q92995 1-863 (enzyme)
chain: B2 chain
With B4, the binding entry in test [3] is listed as “binds”.
